According to PubChem BioAssay AID2015 (National Center for Advancing Translational Sciences (NCATS), 2009):
Inconclusive results, whose numbers are uncertain, are shown with a selection of clear calls. Potencies of inconclusive entries are doubtful fits and often do not repeat. Active and inactive are the calls of the source. Calls come from the whole dose curve; as a rule, active = well fitted inhibition curve with a large enough effect; inconclusive = small, poorly fitted or top-dose-only effect; inactive = flat fitted curve, though single readings scatter.

Chains of the proteins cited; added tags and fusions are not shown. Lines headed by an entry give the natural chain unless they say otherwise; changes in a name come on top.
UniProt P51570: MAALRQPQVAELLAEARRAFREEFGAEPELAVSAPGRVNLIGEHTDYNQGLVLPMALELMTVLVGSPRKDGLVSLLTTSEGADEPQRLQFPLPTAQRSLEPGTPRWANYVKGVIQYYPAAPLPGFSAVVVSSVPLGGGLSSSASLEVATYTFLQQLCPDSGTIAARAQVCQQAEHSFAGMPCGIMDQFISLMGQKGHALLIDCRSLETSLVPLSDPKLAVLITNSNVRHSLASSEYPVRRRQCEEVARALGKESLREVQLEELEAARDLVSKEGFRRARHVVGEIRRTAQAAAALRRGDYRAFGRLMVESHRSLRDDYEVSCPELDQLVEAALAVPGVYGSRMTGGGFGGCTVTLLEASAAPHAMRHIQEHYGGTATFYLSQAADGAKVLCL

The compounds below were run against Galactokinase (Homo sapiens) (UniProt P51570) (assay: Confirmation Assay for Inhibitors of Human Galactokinase (GALK)). Details: purified GALK, Kinase-Glo ATP depletion luminescence; series mostly up to 115 µM.
Source text: NIH Molecular Libraries Probe Production Centers Network [MLPCN] NIH Chemical Genomics Center [NCGC] MLPCN Grant: R03 MH085689-01 Assay Submitter (PI): Kent Lai (University of Utah School of Medicine, 50 N Mario Capecchi Drive, Salt Lake City, UT 84132) NCGC Assay Overview Inherited deficiency of galactose-1-phosphate uridyltransferase (GALT) can result in a potentially lethal disorder called Classic Galactosemia (OMIM 230400). Several lines of evidence indicate that an elevated level of galactose-1-phosphate (gal-1-p), the product of galactokinase (GALK), is a major, if not sole, pathogenic mechanism in patients with classic galactosemia. Therefore, finding inhibitors of GALK is a potential novel therapy for this inherent metabolic disease and is the long term goal of this project. Active compounds observed in the qHTS GALK assay (AID: 1868) were cherry picked and re-screened for validation. GALK (provided by Kent Lai) was assayed using ATP and D-(+)-Galactose (Sigma-Aldrich cat# G0750) as substrates. Promega Kinase-Glo Plus (cat# V3774) technology was used to detect the residual ATP following kinetic reaction. Briefly, the Kinase-Glo Plus contains Ultra-Glo [1] luciferase and D-luciferin which generates a bioluminescence signal from the remaining ATP. Kinase reactions with and without GALK were used as negative and positive controls together with Protein Tyrosine Phosphatase CD45 inhibitor (EMD Bioscience cat# 540215) which is shown to inhibit GALK activity.
NCGC Assay Protocol Summary: Three uL/well of ATP-buffer solution (35 uM ATP, 20mM HEPES pH8.0, 5 mM MgCl2, 60 mM NaCl, 1 mM DTT, 0.01% BSA final concentration) was dispensed into 1536-well, assay plates (Greiner, solid white medium-binding plates) with Aurora Discovery BioRAPTR Flying Reagent Dispenser (FRD; Beckton-Dickenson). Compound and control solution (23 nL) was transferred to the assay plate using the Kalypsys 1536-pin tool apparatus. One uL/well GALK-galactose solution (5 nM GALK, 100 uM galactose, 20 mM HEPES pH8.0, 5 mM MgCl2, 60 mM NaCl, 1 mM DTT, 0.01% BSA final concentration) was then added using the FRD yielding a total kinase reaction volume of 4 uL/ well. After 1 hour of room temperature incubation, 4 uL Kinase-Glo Plus reagent was added for a final assay volume of 8 uL/well. Luminescence was detected with the ViewLux plate reader (Perkin Elmer, Waltham, MA) after 2 min incubation using a 1 sec exposure time and 2x binning.
With CCc1ccc(S(=O)(=O)/N=C2\C=C(Nc3ccc(C(=O)O)cc3)C(=O)c3ccccc32)cc1 the Potency was inconclusive: 10.6 µM [falling, full curve]. In the case of COC(=O)c1ccccc1NC1=C/C(=N\S(=O)(=O)c2ccc(C(=O)O)cc2)c2ccccc2C1=O, the Potency is reported as inconclusive: 11.9 µM [falling, full curve]. For COc1cc(/C=C2/C(=N)N3C(=NC2=O)SN=C3S(=O)(=O)C(C)C)ccc1OS(=O)(=O)c1ccccc1, the Potency was inconclusive: 14.9 µM [falling, full curve]. Cc1[nH][nH]c(=O)c1C(c1ccc(-c2ccc(Cl)c(C(=O)O)c2)o1)c1c(C)[nH][nH]c1=O was tested, and the Potency was inconclusive: 59.5 µM [falling, single point]. For Cc1ccc(C(=O)N/C(=C\c2ccc(Cl)cc2)C(=O)NCCN2CCOCC2)cc1, the Potency was “inactive”. With COc1ccc(N/N=C(/C#N)S(=O)(=O)c2nsc(C)c2C#N)cc1 the Potency was inconclusive: 42.1 µM [falling, partial curve].
